Paper PMC6076264
Results are given in words; binding and its absence hold for the method and conditions named.

By UniProt entry, the sequences of proteins in these tests, tags left out. Where a name states a change or a piece, a line headed by the entry shows the natural chain unless it says otherwise.
UniProt P0A7I0: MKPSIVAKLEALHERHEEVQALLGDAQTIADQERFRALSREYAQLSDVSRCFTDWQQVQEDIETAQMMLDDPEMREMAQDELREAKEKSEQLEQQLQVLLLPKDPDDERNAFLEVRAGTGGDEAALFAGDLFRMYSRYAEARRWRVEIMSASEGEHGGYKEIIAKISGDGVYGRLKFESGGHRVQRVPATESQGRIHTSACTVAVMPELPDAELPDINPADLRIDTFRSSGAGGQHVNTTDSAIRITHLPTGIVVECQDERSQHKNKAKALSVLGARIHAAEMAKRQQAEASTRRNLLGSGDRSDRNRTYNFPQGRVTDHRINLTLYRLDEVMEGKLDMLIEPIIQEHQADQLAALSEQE
UniProt P0A7I4: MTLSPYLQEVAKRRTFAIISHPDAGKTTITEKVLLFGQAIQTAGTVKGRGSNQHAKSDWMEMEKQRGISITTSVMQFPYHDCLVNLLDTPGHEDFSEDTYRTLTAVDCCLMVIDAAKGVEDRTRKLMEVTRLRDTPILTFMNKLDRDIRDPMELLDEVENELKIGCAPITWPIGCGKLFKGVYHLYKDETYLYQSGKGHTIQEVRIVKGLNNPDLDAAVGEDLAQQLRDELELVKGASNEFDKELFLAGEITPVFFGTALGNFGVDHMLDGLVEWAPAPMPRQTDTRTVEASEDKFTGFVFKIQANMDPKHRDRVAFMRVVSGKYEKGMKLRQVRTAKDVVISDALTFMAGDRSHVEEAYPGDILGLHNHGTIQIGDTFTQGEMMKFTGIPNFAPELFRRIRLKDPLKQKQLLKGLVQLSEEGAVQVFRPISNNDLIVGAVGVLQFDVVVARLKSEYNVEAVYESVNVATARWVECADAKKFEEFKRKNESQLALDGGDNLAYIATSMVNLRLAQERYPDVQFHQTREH

Target: RF1-GAQ (RF1-G234A) (UniProt P0A7I0)
Assay: cryo-EM structure; 70S-tRNA(fMet) complexes on start-stop mRNA with 2.5x RF1-GAQ and 50 uM API, then 7.5x RF3-GDPCP; buffer A (30 mM HEPES pH 7.4, 70 mM NH4Cl, 5 mM MgCl2, 30 mM KCl); states I-IV at 3.8-3.9 A and RF3-70S; both purified

binding: no binding
Substance: RF3 (release factor 3), bound to GDPCP (from UniProt P0A7I4 1-529)
